Article PMC7925594
These are yes or no findings as the source states them, for the method shown. Binding seen in cells or lysates may run through a third protein. A result given as binding can be weak or reduced; the word gives no strength.

The chains behind the UniProt entries cited, without tags or fusion partners. Where a name states a change or a piece, a line headed by the entry shows the natural chain unless it says otherwise.
UniProt Q9Y6K9: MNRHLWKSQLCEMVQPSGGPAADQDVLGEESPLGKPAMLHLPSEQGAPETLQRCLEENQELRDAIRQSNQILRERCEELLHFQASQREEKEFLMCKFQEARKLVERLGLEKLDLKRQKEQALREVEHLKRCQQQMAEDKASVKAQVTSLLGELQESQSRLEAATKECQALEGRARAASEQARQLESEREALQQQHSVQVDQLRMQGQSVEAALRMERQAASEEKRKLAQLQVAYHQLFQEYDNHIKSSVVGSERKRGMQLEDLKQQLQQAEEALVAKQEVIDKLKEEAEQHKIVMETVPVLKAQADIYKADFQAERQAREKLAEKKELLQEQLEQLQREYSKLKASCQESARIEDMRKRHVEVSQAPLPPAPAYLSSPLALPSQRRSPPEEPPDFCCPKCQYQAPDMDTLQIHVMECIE
UniProt O75113: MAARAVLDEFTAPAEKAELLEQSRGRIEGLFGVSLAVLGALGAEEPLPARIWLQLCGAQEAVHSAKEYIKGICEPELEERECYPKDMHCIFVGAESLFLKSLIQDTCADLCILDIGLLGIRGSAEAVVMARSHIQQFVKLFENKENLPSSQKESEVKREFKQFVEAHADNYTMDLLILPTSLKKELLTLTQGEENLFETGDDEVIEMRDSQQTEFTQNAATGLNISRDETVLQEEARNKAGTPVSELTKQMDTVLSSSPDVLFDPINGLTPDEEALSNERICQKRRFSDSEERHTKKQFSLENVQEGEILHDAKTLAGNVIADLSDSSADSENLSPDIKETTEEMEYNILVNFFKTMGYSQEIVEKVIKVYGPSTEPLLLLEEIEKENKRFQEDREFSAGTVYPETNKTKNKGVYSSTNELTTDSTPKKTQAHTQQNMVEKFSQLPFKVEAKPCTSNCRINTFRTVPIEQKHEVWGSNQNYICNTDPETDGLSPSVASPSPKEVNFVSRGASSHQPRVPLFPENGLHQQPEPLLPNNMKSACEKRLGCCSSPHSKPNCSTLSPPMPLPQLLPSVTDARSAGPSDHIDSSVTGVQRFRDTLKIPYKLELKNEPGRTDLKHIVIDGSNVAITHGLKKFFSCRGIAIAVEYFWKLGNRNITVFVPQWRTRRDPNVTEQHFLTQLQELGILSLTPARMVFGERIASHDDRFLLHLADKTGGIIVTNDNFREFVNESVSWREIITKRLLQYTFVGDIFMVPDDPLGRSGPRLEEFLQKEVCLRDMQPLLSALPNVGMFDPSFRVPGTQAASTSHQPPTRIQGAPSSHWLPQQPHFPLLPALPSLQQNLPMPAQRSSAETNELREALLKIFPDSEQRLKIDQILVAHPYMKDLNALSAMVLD

Molecular target: Flag-tagged NEMO (UniProt Q9Y6K9)
Assay: co-IP; HEK293T or N4BP1-/- HEK293T cells co-transfected with HA-N4BP1 (or deletion mutants) and Flag-NEMO (or deletion mutants); NP-40 lysis buffer; immunoprecipitation and immunoblot

HA-N4BP1 with NYN domain deletion (from UniProt O75113)
binding: binds
